# System: anti-PAH monoclonal antibody
# Experiment: Sensitivity profiles of the PAH immunoassay using phenanthrene spikes compared to the kit standard
# Type: binding, Balb/c mice
smiles,measurement,setting,value
"c1ccc2c(c1)ccc1ccccc12 [Phenanthrene, reference compound]",confidence in results at different operating temperatures,"0 ppm and 1 ppm phenanthrene levels, 4° C. to 32° C.",≥ 95%
same,confidence level in positive results,"phenanthrene at 1 ppm or above, relative to 0.65 ppm kit standard, room temperature",≥ 95%

# Source: patent publication US5618681A, “Polyaromatic hydrocarbon (PAH) immunoassay method, its components and a kit for use in performing the same” (priority 1995, dated 1997)
